PubChem BioAssay AID2685 (National Center for Advancing Translational Sciences (NCATS), 2010)
The other results are listed elsewhere or left out. These are further read-outs of the screen, such as a control signal, another cell line or another target. No call is given for them. The list favours compounds with an active or inconclusive main result. Words in brackets tell the shape of the fitted curve; partial curves, single points and poor fits give uncertain potencies.

Assay: qHTS Assay for Lipid Storage Modulators in Drosophila S3 Cells;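 for cell number change: cells counted by Cell Tracker Red CMTPX staining in the red channel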
Settings: BODIPY lipid droplet fluorescence, 18-24 h; for cell number change: measured here: cell count max response, cells fed with added oleic acid
Procedure, shortened: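 Drosophila S3 cells loaded with oleic acid (400 uM, as added) and compounds at several concentrations; lipid droplets imaged by 488-nm laser-scanning cytometry, 500–530 nm intensity and object ratio to cell channel. Percent activity normalized to 20 uM Triacsin C.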

[1] = measured here: lipid fluorescence (Fed channel) AC50, cells fed with added oleic acid
[2] = measured here: cell number channel AC50, cells fed with added oleic acid

Structure (SMILES) | cell number change [%] | AC50 [1] | AC50 [2]
Cc1ccc2nc(N3CCC(C(=O)O)CC3)nc(-c3ccccc3)c2c1 | 5.51 | 11.6 µM [rising, partial curve] | 
C[N+](C)(C)CC(=O)N/N=C/c1c2ccccc2cc2ccccc12 | -9.44 | 0.58 µM [rising, single point] | 
CN(C)C(CNC(=O)c1ccc(S(=O)(=O)N(C)C)cc1)Cc1ccccc1 (stereo not drawn) | 12.2 |  | 0.058 µM [rising, full curve, poor fit]
Oc1ccc(Nc2nc(-c3cccs3)cs2)cc1 | -9.16 | 18.4 µM [falling, single point] | 
Cc1cc(-c2ccccc2)nc(N/N=C/c2ccc(O)cc2O)n1 | -65.4 |  | 11.6 µM [falling, partial curve, poor fit]
COCCCNC(=O)/C(C#N)=C/c1cc(C)[nH]c1C | -39 |  | 29.1 µM [falling, single point]
c1ccc(N2CCN(c3nc4cc5c(cc4s3)OCO5)CC2)cc1 |  | 0.13 µM [rising, full curve, poor fit] | 
C(#CC1CCCCC1)c1ccc2c(c1)COc1c3ccccc3nn1-2 | 8.39 | 4.11 µM [rising, full curve] | 
O=S(=O)(/C=C/c1ccccc1)NCc1ccccc1Cl | -2.83 | 29.1 µM [rising, single point] | 
Cn1cc(S(=O)(=O)NCc2ccco2)c(=O)n(C)c1=O | -43.5 | 10.3 µM [falling, partial curve] | 8.2 µM [falling, full curve]
COc1ccc(OC)c(C(C(=O)NC2CCCCC2)N(Cc2ccco2)C(=O)c2ccccn2)c1 (stereo not drawn) | 2.94 | 5.8 µM [rising, full curve] | 
COc1ccc(/C=C(\NC(=O)c2ccco2)C(=O)Nc2ccc(C(C)=O)cc2)cc1 | -6.23 | 18.4 µM [rising, partial curve] | 
CC(C)c1ccc(CN2C(=O)NC3(CCCCCC3)C2=O)cc1 |  | 29.1 µM [falling, single point] | 
COc1ccc(/C=C(\NC(=O)c2ccccc2)C(=O)NCc2ccco2)cc1OC | -17.1 |  | 
O=C(O)c1cccnc1Nc1cccc(C(F)(F)F)c1 | -7.34 | 7.31 µM [falling, single point] | 
CCN(CC)C(=O)Oc1ccnc2cc(Cl)ccc12 | -10.4 | 14.6 µM [falling, single point] | 
NC(=O)C[N+]1(CC#CC(O)(c2ccccc2)c2ccccc2)CCCC1 | 37.8 | 13 µM [rising, partial curve, poor fit] | 14.6 µM [rising, partial curve, poor fit]

Shown field by field: 2 of the compounds above
CN(C)C(CNC(=O)c1ccc(S(=O)(=O)N(C)C)cc1)Cc1ccccc1 (stereo not drawn)
  cell number change [%]: 12.2; AC50 [2]: 0.058 µM [rising, full curve, poor fit]
Oc1ccc(Nc2nc(-c3cccs3)cs2)cc1
  cell number change [%]: -9.16; AC50 [1]: 18.4 µM [falling, single point]
